Results are given in words; binding and its absence hold for the method and conditions named. Binding seen in cells or lysates may run through a third protein.
Molecular target: OLFM4 G438 mutation (UniProt Q6UX06)
Assay: co-IP; GES-1 cells transfected with G438 mutation plasmids; Co-IP for OLFM4 and MYH9; the precipitating antibody is not told

Sequences of proteins named here, by UniProt entry; tags and fusion partners are left off. A change or cut given only in a name is not applied to a line headed by its entry.
UniProt Q6UX06: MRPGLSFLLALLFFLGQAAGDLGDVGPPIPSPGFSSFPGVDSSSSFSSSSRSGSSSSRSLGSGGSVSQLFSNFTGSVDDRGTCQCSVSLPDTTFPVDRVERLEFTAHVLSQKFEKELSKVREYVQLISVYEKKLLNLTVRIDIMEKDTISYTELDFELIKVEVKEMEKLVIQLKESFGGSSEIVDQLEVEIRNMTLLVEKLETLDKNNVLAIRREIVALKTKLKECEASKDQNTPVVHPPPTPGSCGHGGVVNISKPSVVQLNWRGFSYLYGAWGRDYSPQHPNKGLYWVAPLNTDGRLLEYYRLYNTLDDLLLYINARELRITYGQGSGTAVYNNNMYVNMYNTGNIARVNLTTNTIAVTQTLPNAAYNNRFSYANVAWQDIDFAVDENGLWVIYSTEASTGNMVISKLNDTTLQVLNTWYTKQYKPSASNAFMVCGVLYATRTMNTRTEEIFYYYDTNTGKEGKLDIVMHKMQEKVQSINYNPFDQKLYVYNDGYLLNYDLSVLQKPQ
UniProt P35579: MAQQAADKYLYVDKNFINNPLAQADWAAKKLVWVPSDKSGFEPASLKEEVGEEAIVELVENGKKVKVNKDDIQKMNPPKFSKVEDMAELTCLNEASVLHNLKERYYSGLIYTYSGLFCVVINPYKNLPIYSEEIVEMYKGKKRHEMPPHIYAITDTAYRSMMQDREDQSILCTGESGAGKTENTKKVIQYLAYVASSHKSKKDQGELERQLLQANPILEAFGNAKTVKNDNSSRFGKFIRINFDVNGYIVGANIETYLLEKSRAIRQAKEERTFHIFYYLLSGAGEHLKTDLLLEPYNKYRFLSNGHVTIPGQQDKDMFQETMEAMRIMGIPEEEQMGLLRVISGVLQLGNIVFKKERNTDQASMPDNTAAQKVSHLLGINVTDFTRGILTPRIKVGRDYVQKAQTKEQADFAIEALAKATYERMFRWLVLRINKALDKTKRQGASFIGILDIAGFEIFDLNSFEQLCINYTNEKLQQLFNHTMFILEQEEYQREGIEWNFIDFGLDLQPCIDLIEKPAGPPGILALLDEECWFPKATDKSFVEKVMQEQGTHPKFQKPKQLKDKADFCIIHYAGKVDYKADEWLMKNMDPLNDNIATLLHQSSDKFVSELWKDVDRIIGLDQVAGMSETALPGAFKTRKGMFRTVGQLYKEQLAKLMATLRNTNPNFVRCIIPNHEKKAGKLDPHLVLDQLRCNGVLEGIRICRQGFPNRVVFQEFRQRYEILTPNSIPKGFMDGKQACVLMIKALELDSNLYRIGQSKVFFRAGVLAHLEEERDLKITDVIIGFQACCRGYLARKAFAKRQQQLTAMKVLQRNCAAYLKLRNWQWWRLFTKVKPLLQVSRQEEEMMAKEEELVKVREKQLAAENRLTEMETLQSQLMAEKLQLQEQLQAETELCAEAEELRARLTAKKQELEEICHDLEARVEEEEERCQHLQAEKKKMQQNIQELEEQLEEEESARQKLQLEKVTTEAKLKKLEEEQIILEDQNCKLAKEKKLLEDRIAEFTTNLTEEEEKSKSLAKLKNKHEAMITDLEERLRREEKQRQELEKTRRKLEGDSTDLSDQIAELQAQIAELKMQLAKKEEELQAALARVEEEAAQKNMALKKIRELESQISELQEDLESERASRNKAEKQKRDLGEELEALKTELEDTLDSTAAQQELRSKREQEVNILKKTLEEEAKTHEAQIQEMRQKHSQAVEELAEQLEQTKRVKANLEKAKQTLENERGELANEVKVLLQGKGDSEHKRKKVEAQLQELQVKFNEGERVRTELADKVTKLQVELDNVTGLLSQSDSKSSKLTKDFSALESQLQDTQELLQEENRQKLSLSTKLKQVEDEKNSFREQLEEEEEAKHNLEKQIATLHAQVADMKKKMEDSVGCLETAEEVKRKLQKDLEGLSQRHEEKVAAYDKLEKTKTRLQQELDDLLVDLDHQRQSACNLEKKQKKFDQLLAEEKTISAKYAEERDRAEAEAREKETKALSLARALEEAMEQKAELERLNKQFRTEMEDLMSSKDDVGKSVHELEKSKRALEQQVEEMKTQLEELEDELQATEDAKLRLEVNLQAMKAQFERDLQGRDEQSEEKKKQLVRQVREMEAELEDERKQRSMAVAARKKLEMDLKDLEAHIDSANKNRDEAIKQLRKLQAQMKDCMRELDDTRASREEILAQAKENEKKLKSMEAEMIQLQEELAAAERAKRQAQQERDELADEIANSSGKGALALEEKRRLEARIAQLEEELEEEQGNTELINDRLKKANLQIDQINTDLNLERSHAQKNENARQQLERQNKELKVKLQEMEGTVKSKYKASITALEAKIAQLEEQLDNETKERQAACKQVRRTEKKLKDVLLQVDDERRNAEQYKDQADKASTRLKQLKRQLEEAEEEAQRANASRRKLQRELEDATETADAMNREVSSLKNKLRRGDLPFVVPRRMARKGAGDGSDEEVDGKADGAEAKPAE

binding: no binding
Substance: Myosin heavy chain 9 (MYH9) (from UniProt P35579 1-1960)
